# From the supplement of paper PMC8256030
# Several values for one entry are separate records, joined by “and”; a condition that tells them apart may be missing. Equal values may be shown once. Where a name gives a salt, the structure may show the parent alone. Some of the results follow. This data set is noisy: repeats of one test often differ as much as different tests do.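 HEK293T cells were given each compound shortly before transfection with a reporter in which red mCherry is followed by the SARS-CoV-2 frameshift element and then GFP in the −1 frame, so GFP appears only after frameshifting.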
# Experiments:
# HEK293T = assay: percent viability (nuclei count) relative to control; higher = more viable cells; settings: 10 µM; 24 h
# [1] = system: SARS-CoV-2 -1 PRF reporter mCherry-FSE-GFP(-1); assay: mCherry (red) intensity as percent of control; higher = higher upstream reporter expression; settings: 10 µM; 24 h; HEK293T
# [2] = system: SARS-CoV-2 -1 PRF reporter mCherry-FSE-GFP(-1); assay: percent effect, decrease of GFP/mCherry ratio (-1 PRF reporter) relative to controls; higher = stronger frameshift inhibition; settings: 10 µM; 24 h; HEK293T
SMILES,percent viability (HEK293T),mCherry [1],percent effect [2]
Nc1ccc([As](=O)(O)O)cc1 [arsanilic acid],175%,117%,-5.63%
CCC1(c2ccccc2)CCC(=O)NC1=O (centres undefined) [glutethimide],271%,101%,0.536%
O=c1[nH]c(=O)n(Cl)c(=O)n1Cl [troclosene potassium],288%,91.4%,1.02%
NCCc1cc(O)c(O)cc1O [oxidopamine],133%,111%,-7.84%
CN1[C@@H]2CC[C@H]1C[C@@H](OC(=O)C(CO)c1ccccc1)C2 (some centres undefined) [Atropine],83%,86.4%,-6.79%
CN1CC[C@]23c4c5ccc(O)c4O[C@H]2C(=O)CC[C@@]3(O)[C@H]1C5 [oxymorphone],197%,98.3%,0.8%
CC(C)NCC(O)c1ccc(N)c(C#N)c1 (centres undefined) [cimaterol],189%,88.2%,0.634%
NC(=O)c1cc([N+](=O)[O-])cc([N+](=O)[O-])c1,137%,118%,-8.19%
CCCN1CCO[C@@H]2c3cc(O)ccc3CC[C@H]21 [naxagolide],370%,49.9%,-0.354%
C=CCN1CC[C@]23c4c5ccc(O)c4O[C@H]2[C@@H](O)C=C[C@H]3[C@H]1C5 [nalorphine],348%,99.9%,-5.92%
CC(C)(C)NCC(O)c1ccccc1F (centres undefined) [flerobuterol],139%,102%,-10.1%
[O-][n+]1ccccc1[S-].[O-][n+]1ccccc1[S-].[Zn+2],82.1%,70.3%,-8.07%
CCN(C(C)=O)c1cccc(-c2ccnc3c(C#N)cnn23)c1 [zaleplon],134% and 206%,102% and 122%,0.132% and 0.448%
CN(C)C(=S)SSC(=S)N(C)C [thiram],141%,73.5%,-12.5%
N[C@@H](Cc1ccc(N(CCCl)CCCl)cc1)C(=O)O [Melphalan],179%,34.2%,-0.104%
N#Cc1nn(-c2c(Cl)cc(C(F)(F)F)cc2Cl)c(N)c1[S+]([O-])C(F)(F)F (centres undefined),175%,103%,-1.4%
COc1cc([C@@H]2c3cc4c(cc3[C@H](O)[C@H]3COC(=O)[C@H]23)OCO4)cc(OC)c1OC,18.7%,74.4%,-3.56%
CCOC(=O)C1(c2ccccc2)CCN(C)CC1 [pethidine],245%,76.3%,-1.47%
CC(C)N(CCC(C(N)=O)(c1ccccc1)c1ccccn1)C(C)C (centres undefined) [disopyramide],151%,107%,-1.11%
O=C1C[C@@H]2OCC=C3CN4CC[C@]56c7ccccc7N1[C@H]5[C@H]2[C@H]3C[C@H]46,183%,104%,-11.6%
CCOC(=O)c1ncn2c1CN(C)C(=O)c1c(I)cccc1-2 [iomazenil (123I)],107%,87.8%,-0.353%
C=CCC1(C(C)C)C(=O)NC(=O)NC1=O [aprobarbital],343%,94.7%,-3.63%
CC#C[C@]1(O)CC[C@H]2[C@@H]3C[C@H](C)C4=CC(=O)CC[C@]4(C)[C@H]3CC[C@@]21C [dimethisterone],150%,72.8%,0.773%

SMILES,percent viability (HEK293T),mCherry [1],percent effect [2]
C[C@]12CCC(=O)C(O)=C1CC[C@@H]1[C@@H]2CC[C@]2(C)C(=O)CC[C@@H]12 [formestane],172%,85.2%,-5.26%
NCc1cccnc1 [picolamine],153%,90.4%,2.17%
NCC1(CC(=O)O)CCCCC1 [gabapentin],225%,93.7%,1.28%
C[C@H](N)Cc1ccccc1 [dexamfetamine],35.4%,103%,4.79%
CC(C)(N)CC12CC3CC(CC(C3)C1)C2 [somantadine],181%,80.4%,-0.592%
CCC[C@@H]1CC2=CC(=O)CC[C@]2(C)[C@H]2CC[C@@]3(C)[C@@H](CC[C@@]3(O)CCC(=O)O)[C@H]12 [oxprenoate],138%,105%,-0.553%
Nc1c(Cl)cc(CC2=NCCN2)cc1Cl [nemazoline],219%,94.7%,-6.65%
Nc1nc(N)nc(NC2CC2)n1 [cyromazine],154%,116%,0.316%
CCOP(=S)(OCC)Oc1cc(C)nc(C(C)C)n1 [dimpylate],180%,102%,3.79%
CC[C@@H](C(=O)[C@@H](C)[C@@H](O)[C@H](C)[C@@H]1O[C@@H]([C@@H](CC)C(=O)O)CC[C@@H]1C)[C@H]1O[C@]2(C=C[C@@H](O)[C@]3(CC[C@@](C)([C@H]4CC[C@](O)(CC)[C@H](C)O4)O3)O2)[C@H](C)C[C@@H]1C,130%,98.4%,-14.6%
CN(C)[C@@H]1C(=O)C(C(N)=O)=C(O)[C@@]2(O)C(=O)C3=C(O)c4c(O)cccc4[C@@](C)(O)[C@H]3[C@H](O)[C@@H]12 [Oxytetracycline],128%,74.7%,-5.2%
Cc1ncc2n1-c1ccc(Cl)cc1C(c1ccccc1F)=NC2 [midazolam],110%,93.8%,-3.02%
CCC(C)C(C)(COC(N)=O)COC(N)=O (centres undefined) [mebutamate],150%,96.5%,-2.26%
CN(C)[C@@H]1C(=O)C(C(N)=O)=C(O)[C@@]2(O)C(=O)C3=C(O)c4c(O)cccc4[C@@](C)(O)[C@H]3C[C@@H]12 [tetracycline],117%,89%,-4.39%
CN(C)[C@@H]1C(=O)C(C(N)=O)=C(O)[C@@]2(O)C(=O)C3=C(O)c4c(O)ccc(Cl)c4[C@@](C)(O)[C@H]3C[C@@H]12 [Aureocycline],286%,106%,-1.33%
C[C@]1(O)CC[C@H]2[C@@H]3CCC4=CC(=O)CCC4=C3C=C[C@@]21C [metribolone],150%,71.2%,-9.14%
FC(F)(F)c1cccc(C2CNCCO2)c1 (centres undefined) [flumexadol],350%,108%,2.56%
CCOC(=O)c1cncn1[C@H](C)c1ccccc1 [etomidate],206%,93.1%,-1.92%
CCCN1CCC[C@@H](c2cccc(O)c2)C1 [preclamol],140%,94.3%,-3.93%
CCOC(=O)CC(SP(=S)(OC)OC)C(=O)OCC (centres undefined),172%,106%,-3.38%
O=C1CC[C@@]2(O)[C@H]3Cc4ccc(O)c5c4[C@@]2(CCN3CC2CC2)[C@H]1O5,295%,95.9%,2.55%
C[C@@H]1CN(C2CCC(C#N)(c3ccc(F)cc3)CC2)CC[C@]1(C(=O)O)c1ccccc1 (some centres undefined) [Levocabastine·HCl],220%,86.4%,-2.82%
CC(=O)NC1CCSC1=O (centres undefined) [citiolone],294%,94.1%,-0.524%

# One compound at a time, from the list above:
# C[C@H](N)Cc1ccccc1 [dexamfetamine] in the list: percent viability (HEK293T): 35.4%; mCherry [1]: 103%; percent effect [2]: 4.79%
# CN(C)[C@@H]1C(=O)C(C(N)=O)=C(O)[C@@]2(O)C(=O)C3=C(O)c4c(O)ccc(Cl)c4[C@@](C)(O)[C@H]3C[C@@H]12 [Aureocycline] in the list: percent viability (HEK293T): 286%; mCherry [1]: 106%; percent effect [2]: -1.33%
# CCOP(=S)(OCC)Oc1cc(C)nc(C(C)C)n1 [dimpylate] in the list: percent viability (HEK293T): 180%; mCherry [1]: 102%; percent effect [2]: 3.79%
# NCc1cccnc1 [picolamine] in the list: percent viability (HEK293T): 153%; mCherry [1]: 90.4%; percent effect [2]: 2.17%

# More structures:

SMILES,percent viability (HEK293T),mCherry [1],percent effect [2]
NC(=O)OC[C@@H](O)c1ccccc1Cl [carisbamate],409%,64%,0.791%
CC(N)Cc1ccc2c(c1)OCO2 (centres undefined) [tenamfetamine],242%,109%,-4.83%
CNCC(=O)c1ccc(O)c(O)c1,317%,84.5%,-3.36%
CC1(C)C(C=C(Cl)Cl)C1C(=O)OCc1cccc(Oc2ccccc2)c1 (centres undefined),196%,125%,-2.18%
CN1C(=O)NC(=O)C(C)(C2=CCCCC2)C1=O (centres undefined) [hexobarbital],286%,86.5%,-1.04%
Cc1ccccc1-n1c(CF)nc2ccc(N)cc2c1=O [afloqualone],176%,91.1%,1.09%
CC(C)C[C@H]1C(=O)N2CCC[C@H]2[C@]2(O)O[C@](NC(=O)[C@@H]3C=C4c5cccc6[nH]c(Br)c(c56)C[C@H]4N(C)C3)(C(C)C)C(=O)N12 [bromocriptine],85.8%,93.3%,-5.82%
CN1CC(CCN2CC=C(c3ccccc3)CC2)OC1=O (centres undefined) [fenpipalone],192%,81.8%,-3.2%
Cc1nn(C)c2c1C(c1ccccc1F)=NCC(=O)N2C [zolazepam],115%,66.3%,-4.52%
O=[N+]([O-])OCC(CO[N+](=O)[O-])O[N+](=O)[O-],172%,106%,-4.71%
CCNC1=NC(=O)C(c2ccccc2)O1 (centres undefined) [fenozolone],238%,69%,-1.06%
O=C1CN=C(c2ccccn2)c2cc(Br)ccc2N1 [bromazepam],314%,83%,-1.8%
CC(=O)[C@H]1CC[C@H]2[C@@H]3CC[C@@H]4C[C@H](O)CC[C@]4(C)[C@H]3CC[C@]12C,168%,128%,3.83%
NC(=O)C[S+]([O-])C(c1ccccc1)c1ccccc1 (centres undefined) [modafinil],98.3%,110%,-2.95%
COc1ccc(Cc2nccc3cc(OC)c(OC)cc23)cc1OC,129%,94.6%,-9.11%
Cc1cc(N(C)C)ccc1[P+](=O)O [Toldimfos],237%,84.3%,-1.96%
CC(=O)O[C@H]1C[C@H](O[C@H]2[C@@H](O)C[C@H](O[C@H]3[C@@H](O)C[C@H](O[C@H]4CC[C@@]5(C)[C@H](CC[C@@H]6[C@@H]5C[C@@H](O)[C@]5(C)[C@@H](C7=CC(=O)OC7)CC[C@]65O)C4)O[C@@H]3C)O[C@@H]2C)O[C@H](C)[C@H]1O[C@@H]1O[C@H](CO)[C@@H](O)[C@H](O)[C@H]1O [lanatoside C],4.03%,13.8%,-15.9%
Clc1ccc(C(OCCN2CCCCC2)c2ccccc2)cc1 (centres undefined) [cloperastine],286%,151%,2.58%
CN(C)C(=O)Oc1cc(OC(=O)N(C)C)cc(C(O)CNC(C)(C)C)c1 (centres undefined) [bambuterol],364% and 213%,108% and 98.1%,-0.83% and -1.2%
COc1cc2c(c(OC)c1OC)-c1ccc(OC)c(=O)cc1[C@@H](NC(C)=O)CC2 [Colchicine],20.4%,101%,-12.9%
c1ccc(C2(c3ccccc3)OC[C@H]([C@@H]3CCCCN3)O2)cc1 [dexoxadrol],326%,113%,-3.1%
Cn1cc(CCN2CCN(c3ccccc3Cl)CC2)cn1 [enpiprazole],273%,97%,-5.15%
